Reference: PubChem BioAssay AID1159578 (Peter MacCallum Cancer Centre, 2015)
Aim: 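siRNA pools altering how lymphatic endothelial cells close a scratch wound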 (primary screen). Cell system: human lymphatic endothelial cells. Knock-down reagent: siRNA pool against human genes, 40 nM. Duration: 48 h after transfection. Measured: 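High-content imaging of dye-stained cells in a scratch assay measures filled wound area and nuclei per well; duplicate means given as ratio to mock and robust z-score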. Direction: migration robust z-score: higher = faster migration into the scratch; nuclei per well: higher = more cells in the well. Call rule: 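Migration changed when robust z exceeds 2 or falls below -2 and mean nuclei number is at least 3300; otherwise not called changed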. Calls: active = migration changed; inactive = no migration change, or too few cells.
Shown is an unselected part of about 18,000 reagents tested. About 1,030 of them (5.7%) count as active. 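Inactive calls also include pools with fewer than 3300 nuclei, whose migration was not assessed.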 Raw values vary from plate to plate and are shown uncorrected. Not all columns of the deposit are shown. No sequences are given here.

Depletion of EIF4ENIF1 gave: migration robust z-score 0.06; migration class with cell-count check migration z between -2 and 2; enough cells; nuclei per well, duplicate mean 4112; inactive. OR4D10 gave migration robust z-score 1.53; migration class with cell-count check migration z between -2 and 2; enough cells; nuclei per well, duplicate mean 6881; inactive. PPP2R5B gave migration robust z-score -1.01; migration class with cell-count check migration z between -2 and 2; enough cells; nuclei per well, duplicate mean 5235; inactive. Knock-down of BPNT1 came out at: migration robust z-score 1.17; migration class with cell-count check migration z between -2 and 2; enough cells; nuclei per well, duplicate mean 5262; inactive. PPARGC1A gave migration robust z-score 0.26; migration class with cell-count check migration z between -2 and 2; enough cells; nuclei per well, duplicate mean 6126; inactive. For CFP the deposit lists migration robust z-score 0.11; migration class with cell-count check migration z between -2 and 2; enough cells; nuclei per well, duplicate mean 6269; inactive.

CMTM5 scored migration robust z-score -1.25; migration class with cell-count check migration z between -2 and 2; enough cells; nuclei per well, duplicate mean 5455; inactive. After knock-down of SGMS1, the screen gave migration robust z-score 0.31; migration class with cell-count check migration z between -2 and 2; enough cells; nuclei per well, duplicate mean 5554; inactive. ZNF568 scored migration robust z-score 0.01; migration class with cell-count check migration z between -2 and 2; enough cells; nuclei per well, duplicate mean 6952; inactive. For PIK3CD-AS1 the deposit lists migration robust z-score 0.19; migration class with cell-count check migration z between -2 and 2; enough cells; nuclei per well, duplicate mean 4796; inactive. After knock-down of METRNL the results were migration robust z-score -0.16; migration class with cell-count check migration z between -2 and 2; enough cells; nuclei per well, duplicate mean 6398; inactive. After knock-down of TLN1 the results were migration robust z-score 0.36; migration class with cell-count check migration z between -2 and 2; enough cells; nuclei per well, duplicate mean 5328; inactive.

FMO4 scored migration robust z-score 0.08; migration class with cell-count check migration z between -2 and 2; enough cells; nuclei per well, duplicate mean 6490; inactive. Against ZNF408 the deposit lists migration robust z-score 0.86; migration class with cell-count check migration z between -2 and 2; enough cells; nuclei per well, duplicate mean 5157; inactive. Knock-down of ZBTB7B gave: migration robust z-score 0.31; migration class with cell-count check migration z between -2 and 2; enough cells; nuclei per well, duplicate mean 5914; inactive. IRF6 scored migration robust z-score 0.57; migration class with cell-count check migration z between -2 and 2; enough cells; nuclei per well, duplicate mean 5268; inactive. Against SSX2IP, the entry reads migration robust z-score -0.12; migration class with cell-count check migration z between -2 and 2; enough cells; nuclei per well, duplicate mean 4572; inactive. GTF2H2 gave migration robust z-score -0.1; migration class with cell-count check migration z between -2 and 2; enough cells; nuclei per well, duplicate mean 6227; inactive.

BMF showed migration robust z-score 1.11; migration class with cell-count check migration z between -2 and 2; enough cells; nuclei per well, duplicate mean 5945; inactive. Silencing of FGF14 resulted in: migration robust z-score 0.28; migration class with cell-count check migration z between -2 and 2; enough cells; nuclei per well, duplicate mean 4071; inactive. With knock-down of H6PD the results were migration robust z-score -0.98; migration class with cell-count check migration z between -2 and 2; enough cells; nuclei per well, duplicate mean 5599; inactive.

2 consecutive reagents already listed, quoted:
GTF2H2 — migration robust z-score = -0.1; migration class with cell-count check = migration z between -2 and 2; enough cells; nuclei per well, duplicate mean = 6227; call = inactive
BMF — migration robust z-score = 1.11; migration class with cell-count check = migration z between -2 and 2; enough cells; nuclei per well, duplicate mean = 5945; call = inactive
